These are yes or no findings as the source states them, for the method shown. Binding seen in cells or lysates may run through a third protein. Some entries that bind do so weakly or less than the wild type. Where a sequence is shown, tags or fusion partners need not be part of it.
Molecular target: Flag-CHMP2B (CHarged Multivesicular body Protein 2B) (UniProt Q9UQN3)
Test: co-IP; HEK293T co-transfected with Flag-tagged target protein, HA-tagged source protein and GFP-tagged peptide or GFP; lysed after 48 h in RIPA buffer; precipitated with Flag beads; immunoblot

binding | Binder
binds | DEEIERQLKALG [GFP-PDpep1.3 (…)]
binds | IPIQLKA [GFP-PDpep1 (IPIQLKA)]

— paper PMC10115881, “Disrupting the α-synuclein-ESCRT interaction with a peptide inhibitor mitigates neurodegeneration in preclinical models of Parkinson’s disease” (Nature Communications, 2023)
